Results are given in words; binding and its absence hold for the method and conditions named. Binding seen in cells or lysates may run through a third protein. For some assays here: A result given as binding can be weak or reduced; the word gives no strength. For some assays here: Tags and fused reporters may be left off the sequences shown.
Columns and labels:
[1] = molecular target: T1, Myc3-tagged LZAP (full coding sequence) (human) (UniProt Q96JB5); test: co-IP; U2OS cells transfected with tagged LZAP (whole or truncations) and/or Flag-p38; 0.5% NP-40 lysis buffer; immunoprecipitation with anti-Myc, anti-p38 or anti-Flag, protein A or G sepharose; immunoblot for LZAP, Myc or p38; some experiments after UV
T1 sequence: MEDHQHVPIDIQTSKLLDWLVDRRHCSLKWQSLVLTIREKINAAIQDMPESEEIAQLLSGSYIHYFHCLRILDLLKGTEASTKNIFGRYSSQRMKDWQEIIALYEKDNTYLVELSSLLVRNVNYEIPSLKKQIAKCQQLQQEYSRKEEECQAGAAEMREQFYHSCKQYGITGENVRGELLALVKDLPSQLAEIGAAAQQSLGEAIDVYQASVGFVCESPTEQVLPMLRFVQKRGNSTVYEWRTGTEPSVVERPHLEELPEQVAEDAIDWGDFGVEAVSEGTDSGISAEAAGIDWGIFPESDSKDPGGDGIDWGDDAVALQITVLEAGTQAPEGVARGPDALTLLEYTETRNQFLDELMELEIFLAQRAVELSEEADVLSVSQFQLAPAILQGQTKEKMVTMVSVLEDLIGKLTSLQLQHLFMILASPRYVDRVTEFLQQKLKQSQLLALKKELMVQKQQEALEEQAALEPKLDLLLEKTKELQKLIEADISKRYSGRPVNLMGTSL

[2] = molecular target: Flag-tagged p38α (full length); test: as above
[3] = molecular target: endogenous p38 (human (endogenous in U2OS and MCF7)); test: as above
[4] = molecular target: Flag-tagged p38α (full length); test: co-IP; U2OS cells transfected with Flag-p38 and increasing amounts of myc-LZAP, UV treated; immunoprecipitation of Flag-p38; immunoblot for endogenous Wip1
[5] = molecular target: Flag-tagged p38α (full length); test: co-IP; U2OS cells transfected with Flag-p38 without myc-LZAP, UV treated; immunoprecipitation of Flag-p38; immunoblot for endogenous Wip1

Flag-tagged p38α (full length) (enzyme)
binding [1]: binds

B1: Myc3-tagged LZAP (full coding sequence) (protein, UniProt Q96JB5 1-506)
chain: T1 sequence
binding [2]: binds | binding [3]: binds

B2: untagged LZAP (protein, UniProt Q96JB5 1-506)
chain: T1 sequence
binding [2]: binds

B3: Myc3-tagged LZAP truncation αα 1-303 (domain or fragment, UniProt Q96JB5 1-303)
chain: MEDHQHVPIDIQTSKLLDWLVDRRHCSLKWQSLVLTIREKINAAIQDMPESEEIAQLLSGSYIHYFHCLRILDLLKGTEASTKNIFGRYSSQRMKDWQEIIALYEKDNTYLVELSSLLVRNVNYEIPSLKKQIAKCQQLQQEYSRKEEECQAGAAEMREQFYHSCKQYGITGENVRGELLALVKDLPSQLAEIGAAAQQSLGEAIDVYQASVGFVCESPTEQVLPMLRFVQKRGNSTVYEWRTGTEPSVVERPHLEELPEQVAEDAIDWGDFGVEAVSEGTDSGISAEAAGIDWGIFPESDSK
binding [2]: binds

B4: Myc3-tagged LZAP truncation αα 329-506 (domain or fragment, UniProt Q96JB5 329-506)
chain: QAPEGVARGPDALTLLEYTETRNQFLDELMELEIFLAQRAVELSEEADVLSVSQFQLAPAILQGQTKEKMVTMVSVLEDLIGKLTSLQLQHLFMILASPRYVDRVTEFLQQKLKQSQLLALKKELMVQKQQEALEEQAALEPKLDLLLEKTKELQKLIEADISKRYSGRPVNLMGTSL
binding [2]: binds

B5: Myc3-tagged LZAP truncation residues 112-358 (domain or fragment, UniProt Q96JB5 112-358)
chain: VELSSLLVRNVNYEIPSLKKQIAKCQQLQQEYSRKEEECQAGAAEMREQFYHSCKQYGITGENVRGELLALVKDLPSQLAEIGAAAQQSLGEAIDVYQASVGFVCESPTEQVLPMLRFVQKRGNSTVYEWRTGTEPSVVERPHLEELPEQVAEDAIDWGDFGVEAVSEGTDSGISAEAAGIDWGIFPESDSKDPGGDGIDWGDDAVALQITVLEAGTQAPEGVARGPDALTLLEYTETRNQFLDELM
binding [2]: binds

B6: wild-type p53-induced phosphatase 1 (Wip1), endogenous (enzyme, UniProt O15297 1-605)
chain: MAGLYSLGVSVFSDQGGRKYMEDVTQIVVEPEPTAEEKPSPRRSLSQPLPPRPSPAALPGGEVSGKGPAVAAREARDPLPDAGASPAPSRCCRRRSSVAFFAVCDGHGGREAAQFAREHLWGFIKKQKGFTSSEPAKVCAAIRKGFLACHLAMWKKLAEWPKTMTGLPSTSGTTASVVIIRGMKMYVAHVGDSGVVLGIQDDPKDDFVRAVEVTQDHKPELPKERERIEGLGGSVMNKSGVNRVVWKRPRLTHNGPVRRSTVIDQIPFLAVARALGDLWSYDFFSGEFVVSPEPDTSVHTLDPQKHKYIILGSDGLWNMIPPQDAISMCQDQEEKKYLMGEHGQSCAKMLVNRALGRWRQRMLRADNTSAIVICISPEVDNQGNFTNEDELYLNLTDSPSYNSQETCVMTPSPCSTPPVKSLEEDPWPRVNSKDHIPALVRSNAFSENFLEVSAEIARENVQGVVIPSKDPEPLEENCAKALTLRIHDSLNNSLPIGLVPTNSTNTVMDQKNLKMSTPGQMKAQEIERTPPTNFKRTLEESNSGPLMKKHRRNGLSRSSGAQPASLPTTSQRKNSVKLTMRRRLRGQKKIGNPLLHQHRKTVCVC
binding [4]: binds | binding [5]: no binding (only without expressed LZAP)

B7: Myc3-tagged LZAP truncation αα 1-111 (domain or fragment, UniProt Q96JB5 1-111)
chain: MEDHQHVPIDIQTSKLLDWLVDRRHCSLKWQSLVLTIREKINAAIQDMPESEEIAQLLSGSYIHYFHCLRILDLLKGTEASTKNIFGRYSSQRMKDWQEIIALYEKDNTYL
binding [2]: no binding

B8: Myc3-tagged LZAP truncation αα 201-358 (domain or fragment, UniProt Q96JB5 201-358)
chain: LGEAIDVYQASVGFVCESPTEQVLPMLRFVQKRGNSTVYEWRTGTEPSVVERPHLEELPEQVAEDAIDWGDFGVEAVSEGTDSGISAEAAGIDWGIFPESDSKDPGGDGIDWGDDAVALQITVLEAGTQAPEGVARGPDALTLLEYTETRNQFLDELM
binding [2]: no binding

Reference: PMC3026010
